Data: patent US8901118B2, “Compounds and methods for kinase modulation, and indications therefor” (Plexxikon Inc., priority 2010, dated 2014)
Some of these results come from one statement about several compounds together.

Test system: Osteoclast precursor cells
Test: Osteoclast differentiation assay (acid phosphatase readout)
Assay type: cell-based
Method: Further, an osteoclast differentiation assay is used to assess the efficacy of Fms inhibitors for treating bone disease such as osteoarthritis. On day 0, Osteoclast Medium BulletKit (Lonza catalog #PT-8001, containing Media, FBS, L-Glutamine, PenStrep, RANKL, and M-CSF) media is thawed and the FBS, L-glutamine and PenStrep from the kit is added to 100 mL of Osteoclast Precursor Basal medium to provide the Osteoclast Precursor Growth Medium (OPGM). This is warmed to 37° C. Osteoclast precursor cells (Lonza catalog #2T-110) frozen in cryovial are warmed to 37° C. and transferred to a 50 mL conical tube. The cryovial is rinsed with OPGM and added dropwise to the conical tube of cells with swirling, then the volume is adjusted to 20-30 mL with addition of OPGM. The cells are centrifuged at 200×g for 15 minutes at room temperature and all but approximately 3 mL of supernatant is removed to a new conical tube. The cells are suspended in the remaining supernatant and the volume is adjusted to 10-15 mL with OPGM added dropwise with swirling. The cells are centrifuged at 200×g for 15 minutes at room temperature and all but approximately 1 mL of supernatant is removed. The cells are resuspended in the remaining supernatant, counted, and the volume adjusted with an appropriate amount of OPGM to provide approximately 1×10^5 cells/mL. A 0.1 mL aliquot of cells is added to each well of a 96-well plate. Compound to be tested is prepared in DMSO for plating at a high concentration of 2.5 mM, with 8 point 1:3 serial dilutions. A 1 μL aliquot of each compound dilution is added to a 96 well v-bottom polypropylene plate and 0.124 mL of OPGM is added to the compound. Then 50 μL at of the compound in OPGM is added to the osteoclast precursor cells in 96-well plate (providing highest test concentration of 5 μM). RANKL (2 μg) from the BulletKit is reconstituted in 1 mL of OPGM, then vortexed and centrifuged briefly. A 792 μL at aliquot of RANKL is added to 6 mL of OPGM and 50 μL at is added to low control wells. Then 76.6 μL M-CSF (10 μg/mL) from the BulletKit is added to the remaining 5.8 mL of OPGM/RANKL solution (4×RANKL/M-CSF/OPGM). A 50 μL at aliquot of this is added to the remaining wells, and the remainder is stored at 4° C. for later use. The plate is incubated at 37° C. for 6 days, then the remaining OPGM/RANKL/M-CSF solution is warmed to 37° C. The remaining approximately 198 μL is combined with 6 mL of OPGM. The media is aspirated from the osteoclast wells and 100 μL of RANKL/OPGM is added to the low controls. The remaining RANKL/OPGM is combined with the approximately 18.5 μL of remaining M-CSF. The remaining 4×RANKL/M-CSF/OPGM from day 0 is diluted to 1× and combined with the freshly prepared solution. A 0.1 mL aliquot of this is added to each osteoclast well and incubated for 37° C. for 1 day. The Acid Phosphatase kit (Cayman Chemical catalog #10008051) is warmed to room temperature. The assay buffer is diluted 5 mL with 45 mL of water. For each plate, two substrate tablets are dissolved in 4.5 mL of the assay buffer, mixing by vortex to break up the tablet. Stop solution is diluted 12 mL with 36 mL of water. In a tissue culture hood, 20 μL of each osteoclast well supernatant is transferred to a 96 well plate. A 30 μL aliquot of the substrate solution is added to each well and incubated at 37° C. for 20 minutes, then added 100 μL stop solution to each well. The absorbance of each well is read at 405 nm on Safire plate reader. The absorbance reading is plotted vs. concentration to provide the IC50 for each compound.

Compound | activity in the osteoclast differentiation assay
Cc1cnc2[nH]cc(C(=O)c3ccc(Nc4ccc(C)nc4)nc3F)c2c1 [Compound P-3043, [2-Fluoro-6-(6-methyl-pyridin-3-ylamino)-pyridin-3-yl]-(5-methyl-1H-pyrrolo[2,3-b]pyridin-3-yl)-methanone] | showed activity
Nc1ncnc2[nH]cc(C(=O)c3ccc(NC4CCC(F)(F)CC4)nc3Cl)c12 [Compound P-4046, (4-amino-7H-pyrrolo[2,3-d]pyrimidin-5-yl)-[2-chloro-6-[(4,4-difluorocyclohexyl)amino]-3-pyridyl]methanone] | showed activity
Cc1ncnc2[nH]cc(C(=O)c3ccc(Nc4ccc(C5CC5)nc4)nc3F)c12 [Compound P-4045, [6-(6-Cyclopropyl-pyridin-3-ylamino)-2-fluoro-pyridin-3-yl]-(4-methyl-7H-pyrrolo[2,3-d]pyrimidin-5-yl)-methanone] | showed activity
CNc1ncnc2[nH]cc(C(=O)c3ccc(Nc4cncc(OC)c4)nc3F)c12 [Compound P-4108, [2-fluoro-6-[(5-methoxy-3-pyridyl)amino]-3-pyridyl]-[4-(methylamino)-7H-pyrrolo[2,3-d]pyrimidin-5-yl]methanone] | showed activity
Cc1cnc2[nH]cc(Cc3ccc(NC4CCCCC4)nc3F)c2c1 [Compound P-3008, cyclohexyl-[6-fluoro-5-(5-methyl-1H-pyrrolo[2,3-b]pyridin-3-ylmethyl)-pyridin-2-yl]-amine] | showed activity
CCn1cc(Nc2ccc(Cc3c[nH]c4ncnc(OCCOC)c34)c(F)n2)cn1 [Compound P-4014, (1-Ethyl-1H-pyrazol-4-yl)-{6-fluoro-5-[4-(2-methoxy-ethoxy)-7H-pyrrolo[2,3-d]pyrimidin-5-ylmethyl]-pyridin-2-yl}-amine] | showed activity
CCC(CC)Nc1ncnc2[nH]cc(C(=O)c3ccc(Nc4ccc(OC)nc4)nc3F)c12 [Compound P-4077, [4-(1-ethylpropylamino)-7H-pyrrolo[2,3-d]pyrimidin-5-yl]-[2-fluoro-6-[(6-methoxy-3-pyridyl)amino]-3-pyridyl]methanone] | showed activity
Fc1nc(NC2CCC(F)(F)CC2)ccc1Cc1c[nH]c2ncnc(NC3CC3)c12 [Compound P-4129, N-cyclopropyl-5-[[6-[(4,4-difluorocyclohexyl)amino]-2-fluoro-3-pyridyl]methyl]-7H-pyrrolo[2,3-d]pyrimidin-4-amine] | showed activity
O=C(c1ccc(NC2CCC(F)(F)CC2)nc1Cl)c1c[nH]c2ncnc(NCC(F)(F)F)c12 [Compound P-4057, [2-chloro-6-[(4,4-difluorocyclohexyl)amino]-3-pyridyl]-[4-(2,2,2-trifluoroethylamino)-7H-pyrrolo[2,3-d]pyrimidin-5-yl]methanone] | showed activity
CNc1ncnc2[nH]cc(C(=O)c3ccc(Nc4ccc(C5CC5)nc4)nc3F)c12 [Compound P-4094, [6-[(6-cyclopropyl-3-pyridyl)amino]-2-fluoro-3-pyridyl]-[4-(methylamino)-7H-pyrrolo[2,3-d]pyrimidin-5-yl]methanone] | showed activity
COc1ccc(Nc2ccc(C(=O)c3c[nH]c4ncnc(NC(C)(C)C)c34)c(F)n2)cn1 [Compound P-4055, [4-(tert-butylamino)-7H-pyrrolo[2,3-d]pyrimidin-5-yl]-[2-fluoro-6-[(6-methoxy-3-pyridyl)amino]-3-pyridyl]methanone] | showed activity
COc1ccc(Nc2ccc(C(=O)c3c[nH]c4ncnc(N[C@@H](C)c5ccc(F)cc5)c34)c(F)n2)cn1 [Compound P-4072, [2-fluoro-6-[(6-methoxy-3-pyridyl)amino]-3-pyridyl]-[4-[[(1S)-1-(4-fluorophenyl)ethyl]amino]-7H-pyrrolo[2,3-d]pyrimidin-5-yl]methanone] | showed activity
CCn1cc(Nc2ccc(C(=O)c3c[nH]c4ncnc(C5CC5)c34)c(F)n2)cn1 [Compound P-4037, (4-Cyclopropyl-7H-pyrrolo[2,3-d]pyrimidin-5-yl)-[6-(1-ethyl-1H-pyrazol-4-ylamino)-2-fluoro-pyridin-3-yl]-methanone] | showed activity
CCc1ccc(Nc2ccc(C(=O)c3c[nH]c4ncnc(NCC(C)C)c34)c(F)n2)cn1 [Compound P-4121, [6-[(6-ethyl-3-pyridyl)amino]-2-fluoro-3-pyridyl]-[4-(isobutylamino)-7H-pyrrolo[2,3-d]pyrimidin-5-yl]methanone] | showed activity
CCc1ccc(Nc2ccc(C(=O)c3c[nH]c4ncnc(N)c34)c(F)n2)cn1 [Compound P-4065, (4-amino-7H-pyrrolo[2,3-d]pyrimidin-5-yl)-[6-[(6-ethyl-3-pyridyl)amino]-2-fluoro-3-pyridyl]methanone] | showed activity
Cc1cnc2[nH]cc(Cc3ccc(Nc4ccc(C)nc4)nc3F)c2c1 [Compound P-3041, [6-Fluoro-5-(5-methyl-1H-pyrrolo[2,3-b]pyridin-3-ylmethyl)-pyridin-2-yl]-(6-methyl-pyridin-3-yl)-amine] | showed activity
CCC(C)Nc1ncnc2[nH]cc(C(=O)c3ccc(Nc4ccc(OC)nc4)nc3F)c12 (centres unmarked) [Compound P-4078, [2-fluoro-6-[(6-methoxy-3-pyridyl)amino]-3-pyridyl]-[4-(sec-butylamino)-7H-pyrrolo[2,3-d]pyrimidin-5-yl]methanone] | showed activity
COCCOc1ncnc2[nH]cc(Cc3ccc(Nc4ccc(C)nc4)nc3F)c12 [Compound P-4015, {6-Fluoro-5-[4-(2-methoxy-ethoxy)-7H-pyrrolo[2,3-d]pyrimidin-5-ylmethyl]-pyridin-2-yl}-(6-methyl-pyridin-3-yl)-amine] | showed activity
CNc1ncnc2[nH]cc(C(=O)c3ccc(NC4CCC(F)(F)CC4)nc3F)c12 [Compound P-4063, [6-[(4,4-difluorocyclohexyl)amino]-2-fluoro-3-pyridyl]-[4-(methylamino)-7H-pyrrolo[2,3-d]pyrimidin-5-yl]methanone] | showed activity
Cc1cncc(Nc2ccc(C(=O)c3c[nH]c4ncnc(C5CC5)c34)c(F)n2)c1 [Compound P-4039, (4-Cyclopropyl-7H-pyrrolo[2,3-d]pyrimidin-5-yl)-[2-fluoro-6-(5-methyl-pyridin-3-ylamino)-pyridin-3-yl]-methanone] | showed activity
CCOc1ncnc2[nH]cc(Cc3ccc(Nc4cnn(CC)c4)nc3F)c12 [Compound P-4012, [5-(4-Ethoxy-7H-pyrrolo[2,3-d]pyrimidin-5-ylmethyl)-6-fluoro-pyridin-2-yl]-(1-ethyl-1H-pyrazol-4-yl)-amine] | showed activity
CCc1ccc(Nc2ccc(C(=O)c3c[nH]c4ncnc(NCCOC)c34)c(F)n2)cn1 [Compound P-4119, [6-[(6-ethyl-3-pyridyl)amino]-2-fluoro-3-pyridyl]-[4-(2-methoxyethylamino)-7H-pyrrolo[2,3-d]pyrimidin-5-yl]methanone] | showed activity
Cc1cncc(Nc2ccc(Cc3c[nH]c4ncnc(C5CC5)c34)c(F)n2)c1 [Compound P-4038, [5-(4-Cyclopropyl-7H-pyrrolo[2,3-d]pyrimidin-5-ylmethyl)-6-fluoro-pyridin-2-yl]-(5-methyl-pyridin-3-yl)-amine] | showed activity
